In doi:10.1101/2022.05.02.490374 one finds binding data, which are given here for one substance.

Sequences of proteins named here, by UniProt entry; tags and fusion partners are left off.
UniProt O02799: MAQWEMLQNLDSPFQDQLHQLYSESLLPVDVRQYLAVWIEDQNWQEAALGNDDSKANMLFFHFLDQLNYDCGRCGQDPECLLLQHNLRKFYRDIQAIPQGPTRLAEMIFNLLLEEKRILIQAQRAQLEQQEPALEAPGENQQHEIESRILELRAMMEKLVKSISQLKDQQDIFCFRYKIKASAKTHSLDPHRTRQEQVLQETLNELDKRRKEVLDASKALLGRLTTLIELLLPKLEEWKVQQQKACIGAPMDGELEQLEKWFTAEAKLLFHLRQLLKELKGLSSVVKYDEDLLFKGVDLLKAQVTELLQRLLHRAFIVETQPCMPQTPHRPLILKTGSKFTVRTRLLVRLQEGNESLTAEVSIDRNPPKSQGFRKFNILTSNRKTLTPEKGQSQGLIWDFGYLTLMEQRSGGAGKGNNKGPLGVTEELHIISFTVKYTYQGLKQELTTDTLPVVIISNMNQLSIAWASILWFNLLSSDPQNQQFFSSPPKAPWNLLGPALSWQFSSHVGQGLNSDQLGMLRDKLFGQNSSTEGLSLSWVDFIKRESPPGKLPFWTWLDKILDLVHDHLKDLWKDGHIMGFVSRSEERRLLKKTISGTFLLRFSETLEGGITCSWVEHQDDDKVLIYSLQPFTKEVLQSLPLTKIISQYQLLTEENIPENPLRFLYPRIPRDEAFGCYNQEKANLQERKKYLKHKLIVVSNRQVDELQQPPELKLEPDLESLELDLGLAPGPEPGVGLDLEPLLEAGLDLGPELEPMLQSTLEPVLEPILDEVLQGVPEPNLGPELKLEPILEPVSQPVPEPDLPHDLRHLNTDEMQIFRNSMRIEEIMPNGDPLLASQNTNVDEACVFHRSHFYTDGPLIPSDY

Results are given in words; binding and its absence hold for the method and conditions named. Binding seen in cells or lysates may run through a third protein. Some entries that bind do so weakly or less than the wild type.

The experiment has as its target T1, endogenous STAT1 (pig (endogenous in PK15)) (UniProt Q764M5).
T1 sequence: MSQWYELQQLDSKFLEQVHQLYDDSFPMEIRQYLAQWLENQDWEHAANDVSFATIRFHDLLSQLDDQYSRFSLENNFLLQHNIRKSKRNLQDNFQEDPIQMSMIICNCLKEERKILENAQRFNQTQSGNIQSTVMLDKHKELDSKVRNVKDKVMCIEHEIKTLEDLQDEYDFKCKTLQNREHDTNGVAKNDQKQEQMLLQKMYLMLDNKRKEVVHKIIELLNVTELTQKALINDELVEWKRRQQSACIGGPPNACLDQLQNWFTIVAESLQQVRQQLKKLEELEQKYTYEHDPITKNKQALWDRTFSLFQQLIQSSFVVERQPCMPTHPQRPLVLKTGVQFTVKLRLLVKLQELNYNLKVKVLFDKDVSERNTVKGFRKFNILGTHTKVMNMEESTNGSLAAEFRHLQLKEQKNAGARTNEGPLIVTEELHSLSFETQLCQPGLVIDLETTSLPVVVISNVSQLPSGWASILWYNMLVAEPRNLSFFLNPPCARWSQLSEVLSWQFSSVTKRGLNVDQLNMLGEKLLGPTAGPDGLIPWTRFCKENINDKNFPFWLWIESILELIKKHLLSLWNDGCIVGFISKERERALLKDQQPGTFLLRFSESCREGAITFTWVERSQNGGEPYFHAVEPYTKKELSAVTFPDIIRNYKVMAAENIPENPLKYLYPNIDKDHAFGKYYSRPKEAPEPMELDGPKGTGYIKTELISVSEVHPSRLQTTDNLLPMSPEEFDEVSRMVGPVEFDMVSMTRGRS
The experiment can be described thus: co-IP.

Take “endogenous STAT2 (from UniProt O02799 1-864)”: the binding result is “binds”.
